In publication PMC6028519:
These are yes or no findings as the source states them, for the method shown. In cells and extracts the contact can be indirect. Some binding calls cover weakened binding; strength is not graded here.

By UniProt entry, the sequences of proteins in these tests, tags left out.
UniProt Q96RU2: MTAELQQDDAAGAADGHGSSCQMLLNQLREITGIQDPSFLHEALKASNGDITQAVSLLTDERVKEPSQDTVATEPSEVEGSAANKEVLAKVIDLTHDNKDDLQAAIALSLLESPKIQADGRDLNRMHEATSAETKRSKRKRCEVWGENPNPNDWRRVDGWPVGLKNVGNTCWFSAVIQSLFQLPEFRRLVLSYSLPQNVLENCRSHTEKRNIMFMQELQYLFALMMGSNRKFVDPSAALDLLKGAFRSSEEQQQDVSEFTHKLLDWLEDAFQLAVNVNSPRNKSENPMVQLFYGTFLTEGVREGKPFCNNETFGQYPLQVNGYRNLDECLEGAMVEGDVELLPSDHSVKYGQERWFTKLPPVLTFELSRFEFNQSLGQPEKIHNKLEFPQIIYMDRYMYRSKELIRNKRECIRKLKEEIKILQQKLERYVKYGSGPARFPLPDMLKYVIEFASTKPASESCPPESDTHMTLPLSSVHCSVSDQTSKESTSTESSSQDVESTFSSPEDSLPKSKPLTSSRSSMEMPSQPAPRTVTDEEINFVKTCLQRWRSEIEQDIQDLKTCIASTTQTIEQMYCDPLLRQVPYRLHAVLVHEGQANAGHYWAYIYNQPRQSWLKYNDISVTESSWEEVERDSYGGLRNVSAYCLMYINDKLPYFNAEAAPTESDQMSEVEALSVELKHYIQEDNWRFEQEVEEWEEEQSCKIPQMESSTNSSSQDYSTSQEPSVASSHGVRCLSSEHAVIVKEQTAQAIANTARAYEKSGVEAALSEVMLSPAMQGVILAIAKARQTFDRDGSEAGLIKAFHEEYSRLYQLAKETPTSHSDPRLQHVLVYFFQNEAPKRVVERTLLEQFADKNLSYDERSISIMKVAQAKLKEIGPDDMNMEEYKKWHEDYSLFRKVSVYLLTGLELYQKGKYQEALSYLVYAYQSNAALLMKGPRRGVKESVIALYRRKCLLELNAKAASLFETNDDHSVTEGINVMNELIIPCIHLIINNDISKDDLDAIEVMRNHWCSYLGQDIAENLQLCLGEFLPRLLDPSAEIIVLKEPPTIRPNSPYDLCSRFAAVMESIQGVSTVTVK
UniProt Q969H0: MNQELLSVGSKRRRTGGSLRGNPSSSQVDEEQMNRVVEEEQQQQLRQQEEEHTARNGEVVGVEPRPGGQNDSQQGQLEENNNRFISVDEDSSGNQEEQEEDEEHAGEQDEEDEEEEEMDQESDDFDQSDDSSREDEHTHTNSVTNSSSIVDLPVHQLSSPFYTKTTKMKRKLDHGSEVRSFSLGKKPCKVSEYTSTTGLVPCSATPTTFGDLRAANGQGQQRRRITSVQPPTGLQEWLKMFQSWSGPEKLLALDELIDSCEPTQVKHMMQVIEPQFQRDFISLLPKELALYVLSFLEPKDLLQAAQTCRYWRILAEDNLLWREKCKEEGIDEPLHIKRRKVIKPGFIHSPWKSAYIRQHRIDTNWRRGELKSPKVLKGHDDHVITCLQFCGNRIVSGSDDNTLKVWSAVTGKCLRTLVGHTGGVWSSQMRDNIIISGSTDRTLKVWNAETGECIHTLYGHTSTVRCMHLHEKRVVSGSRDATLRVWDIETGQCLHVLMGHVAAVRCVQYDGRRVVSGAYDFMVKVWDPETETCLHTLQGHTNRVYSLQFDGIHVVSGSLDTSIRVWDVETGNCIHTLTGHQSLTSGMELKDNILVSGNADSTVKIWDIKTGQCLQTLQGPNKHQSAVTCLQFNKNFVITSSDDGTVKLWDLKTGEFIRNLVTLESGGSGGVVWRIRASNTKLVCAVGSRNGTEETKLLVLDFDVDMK

Legend:
[1] = target: USP28 (endogenous) (human (endogenous in 293T)) (UniProt Q96RU2); experiment: co-IP; immunoprecipitation of endogenous USP28 from 293T lysate (ELB buffer, 250 mM NaCl), immunoblot of the partner
Flag-USP28 = Flag-USP28 (UniProt Q96RU2); experiment: co-IP; ectopically expressed USP28 in 293T cells (Fig. S2 E-G); who was precipitated is not shown

| Substance | binding [1] | binding (Flag-USP28) |
| --- | --- | --- |
| FBW7 (endogenous) (from UniProt Q969H0 1-707) | binds |  |
| CRAF (from UniProt P04049 1-648) (enzyme) | binds | binds |
